In patent US9745339B2 (GRAFFINITY PHARMACEUTICALS GMBH, priority 2012, dated 2017):

Tests used:
[1] = test system: poly-IgG from human serum (h-poly-IgG); experiment: Microtiter plate chromatography of resins: binding and elution of human poly-IgG
Method: (§1) Resins were assessed in packed mode by microtiter plate chromatography. For each column, approximately 30 μl of resin were transferred to a 384-well filter plate and sealed with appropriate top fits. Columns with rProtein A SEPHAROSE 4 FF and MABSORBENT A2P HF were included as controls.
(§2) Either 3.3 cv of whole IgGs dissolved at 0.5 mg ml^−1 in PBS or undiluted host cell proteins (HCP) were injected onto columns.
(§3) Unbound protein was washed from columns with 5 cv of PBS prior to elution with 5 cv of glycine buffer at pH 2.5. […] During injection of samples, speed was reduced to 10 g and centrifugation time increased to 5-10 min. Effluent fractions were collected in 384-well plates and concentrations of protein were analyzed by Bradford assay. Protein masses mi, mft and me (see below) were calculated as the product of fraction volume and measured protein concentration.
(§4) The fraction of bound protein was calculated as the difference between the total mass of protein injected mi and the mass of protein detected in the flowthrough mft, divided by the total mass of protein injected.
(§5) The yield of protein was calculated as the mass of protein eluted me, divided by the mass of protein injected mi.
(§6) The fraction of bound protein and the yield of protein were calculated for each resin based on data for whole IgG-antibodies. In the case of host cell proteins, only the fraction of bound protein is given. Selectivity of resins was calculated from data for Bevacizumab whole IgG and host cell proteins. Due to limited experimental precision, selectivity was truncated for values beyond 10.

Tocilizumab = experiment: Microtiter plate chromatography of resins: binding and elution of Tocilizumab
Method: as §1, §2, §3, §4, §5, §6

[2] = L55-73: estimated values based on the knowledge obtained from L01-L54
[3] = mass eluted (glycine pH 2.5) / mass injected

Structure (SMILES)	h-poly-IgG Yield [1, 2] [%]	Tocilizumab Yield (Tocilizumab; [2]) [%]	h-poly-IgG Yield [1, 3] [%]	Tocilizumab Yield (Tocilizumab; [3]) [%]
Cc1nc2cc(C(=O)Nc3nnc(-c4cnco4)s3)ccc2n1CCCN [Ligand L72, 1-(3-Amino-1-propyl)-2-methylbenzimidazole-5-carboxylic acid N-[5-(5-oxazolyl)-1,3,4-thiadiazol-2-yl] amide]	>50	>80		
Cn1nc(NC(=O)c2ccc3c(c2)ncn3CCCN)c2ccccc21 [Ligand L02, 1-(3-Amino-1-propyl)benzimidazole-5-carboxylic acid N-(1-methyl-3-indazolyl) amide]			100	97
Cc1nc2cc(C(=O)Nc3nc(-c4ccncc4)cs3)ccc2n1CCCN [Ligand L51, 1-(3-Amino-1-propyl)-2-methylbenzimidazole-5-carboxylic acid N-[4-(4-pyridyl)thiazol-2-yl] amide]			98	100
Cc1nc2cc(C(=O)Nc3nnc(-c4ccoc4)s3)ccc2n1CCCN [Ligand L61, 1-(3-Amino-1-propyl)-2-methylbenzimidazole-5-carboxylic acid N-[5-(3-furyl)-1,3,4-thiadiazol-2-yl] amide]	>70	>80		
NCCCn1cnc2cc(C(=O)Nc3nnc(-c4ccc5c(c4)OCO5)s3)ccc21 [Ligand L09, 1-(3-Amino-1-propyl)benzimidazole-5-carboxylic acid N-[2-(3,4-methylenedioxyphenyl)-1,3,4-thiadiazol-5-yl] amide]			106	100
Cc1ccc(NC(=O)c2ccc3c(c2)ncn3CCCN)nn1 [Ligand L34, 1-(3-Amino-1-propyl)benzimidazole-5-carboxylic acid N-(6-methylpyridazin-3-yl) amide]			74	84
Cc1cc(NC(=O)c2ccc3c(c2)ncn3CCCN)nn1-c1ccccc1 [Ligand L11, 1-(3-Amino-1-propyl)benzimidazole-5-carboxylic acid N-(5-methyl-1-phenylpyrazol-3-yl) amide]			87	90
NCCCn1cnc2cc(C(=O)Nc3nc(-c4ccco4)ns3)ccc21 [Ligand L55, 1-(3-Amino-1-propyl)benzimidazole-5-carboxylic acid N-[3-(2-furyl)-1,2,4-thiadiazol-5-yl] amide]	>70	>80		
Cc1nc2cc(C(=O)Nc3nnc(-c4ccco4)s3)ccc2n1CCOCCOCCN			97	96
Cn1c(CCCCCN)nc2cc(C(=O)Nc3nnc(-c4ccco4)s3)ccc21 [Ligand L31, 2-(5-Amino-1-pentyl)-1-methylbenzimidazole-5-carboxylic acid N-[5-(2-furyl)-1,3,4-thiadiazol-2-yl]amide]			95	95
Cc1nc2cc(C(=O)Nc3nnc(-c4ccno4)s3)ccc2n1CCCN [Ligand L71, 1-(3-Amino-1-propyl)-2-methylbenzimidazole-5-carboxylic acid N-[5-(5-isoxazolyl)-1,3,4-thiadiazol-2-yl] amide]	>50	>80		
NCCCOc1ccc(C(=O)Nc2nc(-c3ccccn3)cs2)cc1 [Ligand L38, 4-[(1-Amino-3-propyl)oxy]benzoic acid N-[4-(2-pyridyl)thiazol-2-yl] amide]			98	97
CCc1nc2cc(C(=O)Nc3ncc(-c4ccco4)s3)ccc2n1CCCN [Ligand L68, 1-(3-Amino-1-propyl)-2-ethylbenzimidazole-5-carboxylic acid N-[5-(2-furyl)thiazol-2-yl] amide]	>70	>80		
NCCCn1cnc2cc(C(=O)Nc3nc(-c4cccnc4)cs3)ccc21 [Ligand L46, 1-(3-Amino-1-propyl)benzimidazole-5-carboxylic acid N-[4-(3-pyridyl)thiazol-2-yl] amide]			98	109
CCc1nc2cc(C(=O)Nc3nnc(-c4ccco4)s3)ccc2n1CCCN [Ligand L44, 1-(3-Amino-1-propyl)-2-ethylbenzimidazole-5-carboxylic acid N-[5-(2-furyl)-1,3,4-thiadiazol-2-yl] amide]			96	106
Cc1nc2cc(C(=O)Nc3ccc(-c4ccco4)nn3)ccc2n1CCCN [Ligand L64, 1-(3-Amino-1-propyl)-2-methylbenzimidazole-5-carboxylic acid N-[6-(2-furyl)pyridazin-3-yl] amide]	>50	>80		
NCCCn1cnc2cc(C(=O)Nc3nnc(-c4ccoc4)s3)ccc21 [Ligand L56, 1-(3-Amino-1-propyl)benzimidazole-5-carboxylic acid N-[5-(3-furyl)-1,3,4-thiadiazol-2-yl] amide]	>70	>80		
Cc1nc2cc(C(=O)Nc3nnc(-c4ncco4)s3)ccc2n1CCCN [Ligand L73, 1-(3-Amino-1-propyl)-2-methylbenzimidazole-5-carboxylic acid N-[5-(2-oxazolyl)-1,3,4-thiadiazol-2-yl] amide]	>50	>80		
NCCCn1cnc2cc(C(=O)Nc3ncc(-c4ccco4)s3)ccc21 [Ligand L58, 1-(3-Amino-1-propyl)benzimidazole-5-carboxylic acid N-[5-(2-furyl)thiazol-2-yl] amide]	>70	>80		
Cc1cnc(NC(=O)c2ccc3c(c2)ncn3CCCN)s1 [Ligand L17, 1-(3-Amino-1-propyl)benzimidazole-5-carboxylic acid N-(5-methylthiazol-2-yl) amide]			96	100
COc1nc2cc(C(=O)Nc3nnc(-c4ccco4)s3)ccc2n1CCCN [Ligand L45, 1-(3-Amino-1-propyl)-2-methoxybenzimidazole-5-carboxylic acid N-[5-(2-furyl)-1,3,4-thiadiazol-2-yl] amide]			99	102
Cc1nc2cc(C(=O)Nc3nc(-c4ccco4)ns3)ccc2n1CCCN [Ligand L60, 1-(3-Amino-1-propyl)-2-methylbenzimidazole-5-carboxylic acid N-[3-(2-furyl)-1,2,4-thiadiazol-5-yl] amide]	>70	>80		
NCCCn1cnc2cc(C(=O)Nc3nnc(-c4ccncc4)s3)ccc21 [Ligand L21, 1-(3-Amino-1-propyl)benzimidazole-5-carboxylic acid N-[5-(4-pyridyl)-1,3,4-thiadiazol-2-yl]amide]			81	86
N[C@@H](CCC(=O)NCCOCCOCCn1cnc2cc(C(=O)Nc3nnc(-c4ccco4)s3)ccc21)C(=O)NCCOCCOCCn1cnc2cc(C(=O)Nc3nnc(-c4ccco4)s3)ccc21 [Ligand L53]			95	91
